# Experimental data taken from the supplement of paper PMC3334620.
# Whole data set: some 33,000 sequences, median “E-score (-0.5 to 0.5)” near -8e-05, cut for the highest 2% near 0.23. This is one part of the list.
# Target: T1, Nrg2 (UniProt P38082)
# T1 sequence: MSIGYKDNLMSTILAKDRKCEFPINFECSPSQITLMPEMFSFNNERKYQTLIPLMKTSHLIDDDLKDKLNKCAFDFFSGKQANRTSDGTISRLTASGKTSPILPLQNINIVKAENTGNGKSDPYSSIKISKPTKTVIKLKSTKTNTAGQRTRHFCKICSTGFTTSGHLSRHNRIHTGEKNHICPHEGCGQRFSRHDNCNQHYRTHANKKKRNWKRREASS
# Experiment: PBM E-score (8-mer binding enrichment) (E-score (-0.5 to 0.5)); higher = stronger / more preferred TF binding
# Conditions: protein concentration: 100 nM; construct: GST-full length
# Outline: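 GST-tagged yeast TFs (full-length or DNA-binding domain) were made by PURExpress in vitro transcription/translation and applied at about 100-200 nM to universal all-10-mer Agilent arrays. The arrays were made double-stranded by primer extension, on fresh or once-stripped slides. Bound protein was detected with fluorescent anti-GST, and scans were normalised with masliner. Each ungapped eight-base word, pooled with its reverse complement, received an E-score (modified Wilcoxon-Mann-Whitney statistic) from the Universal PBM Analysis Suite.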
row,Sequence,PBM E-score
1,ATTGCCAC,0.0443
2,AGCGATTA,-0.0337
3,GAGCGTAC,-0.157
4,GAACGTTC,-0.0394
5,AGCCGAAG,-0.104
6,CCGTGGCC,-0.277
7,CAGGACCA,-0.0167
8,ATCCATGA,-0.14
9,CTGAAAAG,0.095
10,ATGCGCAA,0.182
11,ATTATCCC,0.168
12,ACCAGCTA,0.114
13,ACTGCCCA,0.05
14,CGTGAAAG,-0.0377
15,CCATAGGG,0.00266
16,CTAAGTGC,-0.00554
17,CGTCATTC,0.2
18,TGCAAGCA,0.0247
19,AGTCGTCG,-0.142
20,AGATGATC,0.164
21,GTCTGCGA,-0.0083
22,CATGCCTC,-0.109
23,AGCCTTCG,-0.23
24,CATGCTCA,0.0109
25,CTAGCGGC,-0.34

row,Sequence,PBM E-score
1,CAGGCAGA,-0.084
2,GTAGCTAA,0.0457
3,AGAGGGTG,-0.13
4,AACTGGTC,-0.0552
5,AGTAGGCC,0.0655
6,GCCGCGTA,-0.176
7,CGAGGATA,0.132
8,AAGCCTAT,-0.0255
9,GAAGCGAC,0.0489
10,ATCGTGGA,0.0974
11,GCCTCAAA,0.00933
12,AACCAAGG,0.113
13,AAAGGCGT,-0.195
14,CTATGCCA,0.0832
15,GCTAAACA,0.124
16,CTGCAGGC,-0.222
17,CAACCACG,-0.0473
18,GGTTATAA,-0.0307
19,AACACACG,-0.1
20,AACGTTGA,-0.0301
21,CATACACC,-0.0934
22,TATGTTCA,0.0853
23,AGGCTGCC,-0.25
24,TGCACCAA,-0.0972
25,CAAGGGTA,0.15

row,Sequence,PBM E-score
1,ATTGCCTC,0.14
2,CGATTGTA,0.184
3,CGGGCGTC,-0.0115
4,CTCGATTA,0.251
5,GAAAACTA,0.107
6,ATATGGCC,-0.0218
7,AGCTAAAT,-0.0748
8,CGGAGAGC,-0.196
9,ACGTGGCT,-0.0848
10,GGAAACAC,-0.0852
11,AGAGTTGC,0.129
12,GCAAGGCA,0.0374
13,GTCCGCCA,-0.0221
14,TTGCTAAA,-0.0838
15,AATGCTTG,-0.117
16,GCAGATGC,-0.0372
17,GGCCACAC,-0.0192
18,TCGTTGCA,-0.023
19,AAGCCAAT,-0.0447
20,CACAGGCG,-0.00844
21,TAACAAAA,0.0323
22,ACATTGTA,0.129
23,GCTCGCCA,0.113
24,CATTTCAG,-0.0267
25,GCCGCAGA,0.0603

row,Sequence,PBM E-score
1,ACTGGTAA,0.0662
2,GCTCCCAA,-0.0754
3,AGCAGTTG,0.0315
4,AAACGTGA,0.0367
5,CAACCTGC,0.0403
6,ACTACCGC,-0.0511
7,ACCGCGGC,0.0385
8,CCCTTCGG,0.0466
9,AAGGCTCG,-0.24
10,TGCCTCAA,0.00238
11,AGACTCCC,-0.404
12,CACTCCAC,-0.00112
13,AGACTCCT,-0.0545
14,ACGCTTCG,0.0597
15,CGCCGGCC,-0.166
16,TCACGAAA,0.0618
17,ATCTAGGC,-0.174
18,CGCTTATA,0.14
19,CGACGAAC,0.142
20,ACTTTCTG,0.0001
21,CGTCTTTC,-0.185
22,CTGTGTCA,-0.0513
23,AGATGCCC,0.0908
24,AAGCAAAG,-0.109
25,GCAGTAGA,-0.185

row,Sequence,PBM E-score
1,CGCGATCA,0.134
2,CCTATTAC,0.0565
3,AATCCAAC,-0.0675
4,GCGAATGA,0.182
5,ACGTTTCT,-0.0896
6,CTCTCCAC,-0.189
7,AGGTGGTA,0.0866
8,CACCTCTG,-0.0522
9,ACGACCCT,0.1
10,AGTTTAAA,0.0162
11,AGATGTTG,-0.0673
12,ATGAGGGA,-0.0703
13,AGCTAGCA,-0.191
14,ACAGTTAT,0.0731
15,GACGCTCA,-0.122
16,GCAGAAGC,-0.0396
17,AGGTCGGG,-0.142
18,GACCCCAA,-0.0335
19,CCATGTGC,0.0328
20,AATGCAGT,0.0384
21,ACTGGATG,-0.0725
22,AGCCAGGG,0.0594
23,AGCCTCTC,-0.241
24,CCTGCGAC,-0.0943
25,CAGCAGCG,-0.0287

# Some of the entries so far, with bars between the fields:
row | Sequence | PBM E-score
8 | CCCTTCGG | 0.0466
9 | AAGGCTCG | -0.24
10 | TGCCTCAA | 0.00238
11 | AGACTCCC | -0.404
12 | CACTCCAC | -0.00112
13 | AGACTCCT | -0.0545
14 | ACGCTTCG | 0.0597
15 | CGCCGGCC | -0.166
16 | TCACGAAA | 0.0618
17 | ATCTAGGC | -0.174
18 | CGCTTATA | 0.14
19 | CGACGAAC | 0.142
20 | ACTTTCTG | 0.0001
21 | CGTCTTTC | -0.185
22 | CTGTGTCA | -0.0513
23 | AGATGCCC | 0.0908
24 | AAGCAAAG | -0.109
1 | CGCGATCA | 0.134
2 | CCTATTAC | 0.0565
3 | AATCCAAC | -0.0675
4 | GCGAATGA | 0.182
5 | ACGTTTCT | -0.0896
6 | CTCTCCAC | -0.189
7 | AGGTGGTA | 0.0866
8 | CACCTCTG | -0.0522
9 | ACGACCCT | 0.1
10 | AGTTTAAA | 0.0162
11 | AGATGTTG | -0.0673
13 | AGCTAGCA | -0.191
14 | ACAGTTAT | 0.0731
15 | GACGCTCA | -0.122
16 | GCAGAAGC | -0.0396
18 | GACCCCAA | -0.0335
19 | CCATGTGC | 0.0328
20 | AATGCAGT | 0.0384
21 | ACTGGATG | -0.0725
22 | AGCCAGGG | 0.0594
23 | AGCCTCTC | -0.241
24 | CCTGCGAC | -0.0943
25 | CAGCAGCG | -0.0287

# Next part:

row,Sequence,PBM E-score
1,CCACACCG,-0.00232
2,CGTAAGCA,-0.2
3,AGATAAAC,0.147
4,CAGTCCAG,-0.185
5,CGGGCCAG,-0.0425
6,CTTGGGGC,0.124
7,AAGACATG,-0.218
8,CAGCGCAA,0.0307
9,GGCCCAAA,0.0526
10,ACTGGACC,-0.0246
11,ATCATGAA,0.159
12,GAATGTGC,-0.0362
13,AAAGTCAG,0.0997
14,CTTACGAC,-0.15
15,CGCATTAG,-0.116
16,CGTGCGAG,0.105
17,AAAACAAG,0.173
18,CAAACTGC,0.0245
19,GCCCCTAA,0.144
20,AGCACGTA,-0.111
21,CAGTGTGG,-0.15
22,GATACGCC,-0.0355
23,ACGCGTAC,0.0223
24,AAGCGCTA,0.0465
25,AAGCGTAT,0.0185

row,Sequence,PBM E-score
1,AATTAACT,0.19
2,CTCTACGC,0.0332
3,CCTCGCCG,-0.135
4,CGCGGGCA,0.281
5,CAGCCTAC,0.0702
6,ACGGGCGC,0.0207
7,GCAATACA,0.298
8,CAAGATGC,0.177
9,ATATGCTG,-0.0112
10,GCCCGTTA,-0.159
11,CCCCCATA,-0.338
12,GCTTCGTA,-0.102
13,CATCAGGC,-0.00739
14,ACATCGCA,-0.0272
15,CAAGTATC,-0.00589
16,ATAAAATC,0.107
17,ACGAGGTG,0.0679
18,AGTCACTA,-0.0493
19,TCACATAA,0.0235
20,ACAATGTA,0.104
21,GCCCGAGC,0.106
22,ATCGTTAC,0.0129
